Results from publication PMC9770967, “Native holdup (nHU) to measure binding affinities from cell extracts” (Science Advances, 2022).
These are yes or no findings as the source states them, for the method shown. Binding seen in cells or lysates may run through a third protein. A yes stands for co-enrichment or nearness to the bait. Other partners may have been found. No binding means not detected with the bait.

Amino acid sequences for entries named in this document (tags omitted). Residues count along the entry.
SCRIB PDZ_1 domain bait (Q14160, residues 728-815): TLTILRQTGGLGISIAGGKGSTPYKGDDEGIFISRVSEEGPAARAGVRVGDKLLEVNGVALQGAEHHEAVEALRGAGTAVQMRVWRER
SCRIB PDZ_2 domain bait (Q14160, residues 862-950): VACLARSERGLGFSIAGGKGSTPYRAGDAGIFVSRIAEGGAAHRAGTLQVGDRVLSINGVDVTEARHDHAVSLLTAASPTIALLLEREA
UniProt Q12959, residues 319-405: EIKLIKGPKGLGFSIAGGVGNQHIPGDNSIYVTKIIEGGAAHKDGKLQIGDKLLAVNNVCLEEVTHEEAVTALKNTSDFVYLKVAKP

Key:
Assay in all cases: native holdup (nHU) with label-free quantitative mass spectrometry; single-point (~10 μM bait); isolated PDZ domain baits fused to biotinylated MBP on streptavidin resin, biotinylated-His6-MBP as control; total cell extract as analyte (Jurkat, two series on two instruments, the second with six PDZ baits; SNX27_PDZ also with SH-SY5Y); 4°C, 2 hours; apparent affinities; only the target purified
[1] = biological target: T1, Tax1 binding protein 3 (TAX1BP3) PDZ domain bait (UniProt O14907)
T1 sequence: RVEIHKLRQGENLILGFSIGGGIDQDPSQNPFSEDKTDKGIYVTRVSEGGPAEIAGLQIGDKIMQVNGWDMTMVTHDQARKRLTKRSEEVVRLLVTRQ

SCRIB PDZ_1 domain bait = SCRIB PDZ_1 domain bait (UniProt Q14160)
[2] = biological target: discs large MAGUK scaffold protein 1 (DLG1) PDZ_2 domain bait (UniProt Q12959)
SCRIB PDZ_2 domain bait = SCRIB PDZ_2 domain bait (UniProt Q14160)

Measured: binding

B1: monocarboxylate transporter 1 (SLC16A1) (protein, UniProt P53985 1-500)
chain: MPPAVGGPVGYTPPDGGWGWAVVIGAFISIGFSYAFPKSITVFFKEIEGIFHATTSEVSWISSIMLAVMYGGGPISSILVNKYGSRIVMIVGGCLSGCGLIAASFCNTVQQLYVCIGVIGGLGLAFNLNPALTMIGKYFYKRRPLANGLAMAGSPVFLCTLAPLNQVFFGIFGWRGSFLILGGLLLNCCVAGALMRPIGPKPTKAGKDKSKASLEKAGKSGVKKDLHDANTDLIGRHPKQEKRSVFQTINQFLDLTLFTHRGFLLYLSGNVIMFFGLFAPLVFLSSYGKSQHYSSEKSAFLLSILAFVDMVARPSMGLVANTKPIRPRIQYFFAASVVANGVCHMLAPLSTTYVGFCVYAGFFGFAFGWLSSVLFETLMDLVGPQRFSSAVGLVTIVECCPVLLGPPLLGRLNDMYGDYKYTYWACGVVLIISGIYLFIGMGINYRLLAKEQKANEQKKESKEEETSIDVAGKPNEVTKAAESPDQKDTDGGPKEEESPV
no binding (tested: ~10 μM bait): all assays above

B2: neutral amino acid transporter B(0) (SLC1A5) (protein, UniProt Q15758 1-541)
chain: MVADPPRDSKGLAAAEPTANGGLALASIEDQGAAAGGYCGSRDQVRRCLRANLLVLLTVVAVVAGVALGLGVSGAGGALALGPERLSAFVFPGELLLRLLRMIILPLVVCSLIGGAASLDPGALGRLGAWALLFFLVTTLLASALGVGLALALQPGAASAAINASVGAAGSAENAPSKEVLDSFLDLARNIFPSNLVSAAFRSYSTTYEERNITGTRVKVPVGQEVEGMNILGLVVFAIVFGVALRKLGPEGELLIRFFNSFNEATMVLVSWIMWYAPVGIMFLVAGKIVEMEDVGLLFARLGKYILCCLLGHAIHGLLVLPLIYFLFTRKNPYRFLWGIVTPLATAFGTSSSSATLPLMMKCVEENNGVAKHISRFILPIGATVNMDGAALFQCVAAVFIAQLSQQSLDFVKIITILVTATASSVGAAGIPAGGVLTLAIILEAVNLPVDHISLILAVDWLVDRSCTVLNVEGDALGAGLLQNYVDRTESRSTEPELIQVKSELPLDPLPVPTEEGNPLLKHYRGPAGDATVASEKESVM
no binding (tested: ~10 μM bait): all assays above
